PubChem BioAssay AID686943 – Drosophila RNAi Screening Center | 2013
Purpose: 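Knockdowns that increase or decrease active ERK after insulin receptor stimulation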 (primary screen). Cell system: Drosophila S2R+ haemocyte-like cells expressing YFP-tagged ERK (Rolled). Reagents: long dsRNA against Drosophila genes. Challenge: insulin stimulation versus unstimulated cells; dose and duration not given. Measurement: 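Antibody staining for doubly phosphorylated ERK divided by ERK-YFP signal, as plate z-scores, in insulin-treated and untreated cells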. Scale: replicate 1, z-score of dpERK with insulin: higher = more active ERK per ERK-YFP after insulin.
In all, the deposit lists about 23,000 reagents; shown is a random part of those that have a named target and a result. 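Extra replicates exist only for a retested subset of genes; insulin dose and duration not given; both raised and lowered dpERK matter.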 Names joined by + are all predicted targets of the reagent. Further read-outs or replicates are left out here. The record does not give: the amount of reagent, the time to read-out.

replicate 1, z-score of dpERK with insulin, by target gene and reagent
CG13627: SID104194421 -0.33
Lsm10: SID104186042 0.55
CG33128: SID104180086 -0.11
AttB: SID104186526 -0.08
CG15876: SID104188276 0.54
CG42676: SID104188019 0.67; SID104188184 -0.51
CG15170: SID104182263 -0.48
Sp1: SID104197414 0.74; SID104198509 0.28
Tbc1d15-17: SID104180105 0.77
Prp31: SID104190527 0.73
CG6044: SID104184314 -0.04
AstC-R2: SID104189843 0.8
CG5937: SID104198184 0.36
CG17219: SID104180278 0.56
CG4554: SID104184265 -0.04
CG5214: SID104195531 0.19; SID104202201 -0.7
CG4440: SID104182539 0.37
Cbp80: SID104198242 -0.2
CG31230: SID104201684 -0.3
CG3021: SID104197957 -0.06; SID104198444 1.54
CG5171: SID104182615 0.9
Blimp-1: SID104190288 0.9
trbl: SID104191693 -0.13
CG7406: SID104199834 0.66
Dic3: SID104185850 0.55
CG13204: SID104186120 0.81
CG6015: SID104195740 4.41
CG32276: SID104187819 0.21
CG12164: SID104185907 0.47; SID104201439 0.19
CG5104: SID104191557 0.32
CG33287: SID104202286 0.34
CG8159: SID104196184 0.14
CG42712 (retired record): SID104180830 -0.53
srp: SID104192917 0.27; SID104196860 -1.4
Dab: SID104190932 0.98
CG18477 + CG31780: SID104181747 -0.42
DptA: SID104187196 0.15
CG14017: SID104182140 0.89
ClpX: SID104195384 -0.13
Nrd1: SID104199622 -0.44
Lcp1Psi: SID104184897 -1.12
Or22c: SID104180558 1.21
Lint-1: SID104199614 -1.45
CG1504: SID104200305 -0.87
mkg-p: SID104190569 0.7
Amun: SID104199639 1.07
CG18335: SID104186515 -0.77
Blm: SID104196703 -0.33
CG18853: SID104186587 0.25
Obp19a: SID104200279 0.41
Cec-Psi1: SID104201568 0.37

6 of these entries, reformatted.
Cbp80 [SID104198242]
- replicate 1, z-score of dpERK with insulin: -0.2

CG31230 [SID104201684]
- replicate 1, z-score of dpERK with insulin: -0.3

CG3021 [SID104197957]
- replicate 1, z-score of dpERK with insulin: -0.06

CG3021 [SID104198444]
- replicate 1, z-score of dpERK with insulin: 1.54

CG5171 [SID104182615]
- replicate 1, z-score of dpERK with insulin: 0.9

Blimp-1 [SID104190288]
- replicate 1, z-score of dpERK with insulin: 0.9
